Data reported in PubChem BioAssay AID1347076 (National Center for Advancing Translational Sciences (NCATS), 2019).
Screen size: about 400,000 compounds; about 13,000 (3.2%) were called active. This list was built around the results that the source calls inconclusive (neither active nor inactive); the mix of calls is not that of the screen. The call rests on the fitted dose curve; in most records, active means well fitted cell-killing curve with a large enough effect; inconclusive means small, poorly fitted or top-dose-only effect, or effect the other way; inactive means flat fitted curve, though single readings scatter. Potencies beside an inconclusive call are fits to weak or partial responses and may not hold up.

assay: qHTS assay for MDR1-selective chemotherapeutics: Primary screen using the drug-selected MDR subline cells KB-V1; conditions: KB-V1 MDR cells viability, CellTiter-Glo, 72 h; series mostly up to 46.1 µM; further: nearly all actives have a fitted effect of over 60% in size
How it was run: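 In this primary screen, KB-V1 cells overexpressing P-gp are incubated with library compounds (lowest to highest concentration) for 72 h at 37 degrees C before a luminescent ATP viability read.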
Potency means the concentration at half of the fitted maximal effect.

Row | SMILES | Potency
1 | CC(C)(C)c1ccc(OCCOCCn2c(-c3ccc(Cl)cc3)nc3ccccc3c2=O)cc1 | inactive
2 | O=C(COC(=O)c1cccc(NC(=O)c2ccc(Br)cc2)c1)c1ccc(Cl)cc1 | inactive
3 | COc1ccccc1C(=O)Nc1ccc2c(c1)nc(CCNC(=O)c1ccccc1)n2C | inconclusive: 16.4 µM [cytotoxic, partial curve]
4 | Cc1ccc(S(=O)(=O)N2CCC(=O)N(CCOC(=O)Nc3ccc(F)cc3)CC2)cc1 | inconclusive: 20.6 µM [cytotoxic, partial curve]
5 | COc1ccc(C(CNC(=O)c2cccc(S(=O)(=O)N3CCOCC3)c2)N2CCCC2)cc1 (centres undefined) | inactive
6 | CCCc1cc(=O)oc2c(C)c(O)c(CN3CCCCC3)cc12 | inconclusive: 2.91 µM [cytotoxic, partial curve, poor fit]
7 | Cc1cc(C)cc(NC(=O)CCn2c(=O)c3cccn3c3ccccc32)c1 | inconclusive: 20.6 µM [cytotoxic, single point]
8 | O=C(CCC1CCN(C(=O)C2CC=CCC2)CC1)Nc1ccccc1 (centres undefined) | active: 16.4 µM
9 | Cn1c(=O)c2c(SCC(=O)Nc3ccccc3F)nc(C3CC3)nc2n(C)c1=O | inconclusive: 3.26 µM [cytotoxic, full curve]
10 | CN(C)c1ccc(/C=N/N=C2/NC(=O)/C(=C/c3ccc([N+](=O)[O-])cc3)S2)cc1 | inconclusive: 18.4 µM [cytotoxic, partial curve]
11 | O=C(CCC(=O)Nc1ccccc1)NNC(=O)CCc1ccccc1 | inactive
12 | CCCCn1c2c(c(=N)c3c1CCC3)CCC2 | inactive
13 | C/C=C/c1cccc(-c2nc(C(=O)NC3Cc4ccccc4C3)cc3c2[C@@H](CCO)N(C(C)=O)C3)c1 | inconclusive: 20.6 µM [cytotoxic, partial curve, poor fit]
14 | O=C(CSc1nc2ccccc2c2c1CCCC2)N1CCOCC1 | inconclusive: 11.6 µM [cytotoxic, partial curve]
15 | Cc1cccc(C2c3c(n(C)c(=O)n(C)c3=O)N=C3c4ccccc4C(=O)C32)c1 (centres undefined) | inconclusive: 0.0058 µM [cytotoxic, full curve, poor fit]
16 | O=C(Nc1ccccc1Cl)c1cc(C2CCCN(C(=O)c3cccc(O)c3)C2)on1 (centres undefined) | inactive
17 | CC(C(=O)NCCCn1ccnc1)(c1ccccc1)c1ccccc1 | inactive
18 | CC1(C(=O)NS(=O)(=O)c2cccs2)CCN1C(=O)Cc1ccc(Cl)cc1Cl (centres undefined) | inactive
19 | CC1(C)Cc2nc3sc4c(SCC(=O)NCc5ccco5)ncnc4c3cc2CO1 | inconclusive: 1.3 µM [cytotoxic, full curve, poor fit]
20 | O=C1CCCC2=C1C(c1ccc(Cl)cc1)n1c(s/c(=C\c3ccc4ccncc4c3)c1=O)=N2 (centres undefined) | inconclusive: 14.6 µM [cytotoxic, partial curve, poor fit]
21 | O=C(NC1CCCCC1)c1cc(Cl)nc2ccccc12 | inconclusive: 18.4 µM [cytotoxic, partial curve]
22 | CCOC(=O)c1c(-c2ccc(C)s2)csc1NC(=O)c1cccs1 | inactive

From compound 16 to 17, copied from above:
Row | SMILES | Potency
16 | O=C(Nc1ccccc1Cl)c1cc(C2CCCN(C(=O)c3cccc(O)c3)C2)on1 (centres undefined) | inactive
17 | CC(C(=O)NCCCn1ccnc1)(c1ccccc1)c1ccccc1 | inactive

Following part.

Row | SMILES | Potency
23 | O=C(CN1CCN(S(=O)(=O)N2CCCCCC2)CC1)Nc1ccc(F)cc1 | inconclusive: 14.6 µM [cytotoxic, partial curve]
24 | COc1cccc(C2CC(c3c(-c4ccccc4)c4cc(Cl)ccc4[nH]c3=O)=NN2S(C)(=O)=O)c1OC (centres undefined) | inconclusive: 23.1 µM [cytotoxic, single point]
25 | COCCn1c(C)c(C(=O)O)sc1=S | inactive
26 | Cc1cc(NC(=O)Nc2nnc(N3CCCCC3)s2)ccc1Br | inconclusive: 18.4 µM [rising, partial curve]
27 | O=S(=O)(c1ccc(Br)cc1)N1CCCN(Cc2ccccc2F)CC1 | inactive
28 | COc1ccc(OC)c(NC(=O)c2c3c(nc4ccccc24)CCC3)c1 | active: 6.51 µM
29 | O=C(Nc1ccccc1C(F)(F)F)C(O)(c1ccccc1)C1CCCCC1 (centres undefined) | inconclusive: 29.1 µM [rising, single point]
30 | O=C(Nc1ccc([N+](=O)[O-])cc1)C1CC1(c1ccccc1)c1ccccc1 (centres undefined) | inconclusive: 16.4 µM [cytotoxic, partial curve]
31 | COc1cccc(SCC2(O)CCN(C(=O)c3ccc(Cl)cc3)CC2)c1 | inconclusive: 20.6 µM [cytotoxic, single point]
32 | c1cncc(-c2nc(NCc3ccc4c(c3)OCO4)c3ccccc3n2)c1 | inactive
33 | COc1cc(/C=C/C(=O)OCC(=O)NC(=O)NC(C)(C)C)ccc1OCC#N | inconclusive: 0.0046 µM [cytotoxic, full curve, poor fit]
34 | COc1ccc2c(c1)sc1nc(-c3ccccc3)cn12 | inconclusive: 0.82 µM [cytotoxic, full curve, poor fit]
35 | Cc1cc(C)n(-c2nc3ccccc3nc2Nc2cc(Cl)ccc2C)n1 | inconclusive: 7.31 µM [rising, partial curve]
36 | O=C(NCCN1C(=O)S/C(=C\c2ccccc2F)C1=O)C1CC(=O)N(Cc2ccccc2)C1 (centres undefined) | inconclusive: 20.6 µM [cytotoxic, partial curve, poor fit]
37 | CSc1ccccc1NC(=O)CSCc1ccc(Br)cc1 | active: 20.6 µM
38 | Cc1cc(C)cc(N(C(C)C(=O)N2CCCC2)S(C)(=O)=O)c1 (centres undefined) | inconclusive: 7.31 µM [cytotoxic, partial curve, poor fit]
39 | CCC/C=C(\CCC)C(NC(=O)c1ccc(C(=O)OC)cc1)c1ccc(C(=O)OC)cc1 (centres undefined) | inactive
40 | Cc1cccc(NC(=O)c2cc(-c3ccccn3)nc3ccccc23)c1C | active: 10.3 µM
41 | Cc1ccccc1OCc1nc2ccccc2c(=O)n1/N=C/c1cn[nH]c1-c1ccc(Br)cc1 | active: 7.31 µM
42 | O=S(=O)(NCc1csc(-c2cccs2)n1)c1cccs1 | inconclusive: 4.61 µM [rising, full curve, poor fit]
43 | COc1ccc(NC(=O)c2cc(-c3ccco3)nc3ccccc23)cc1 | inactive
44 | COc1ccc(C(=O)c2c(C)oc3cc([N+](=O)[O-])c(O)c([N+](=O)[O-])c23)cc1 | inconclusive: 20.6 µM [cytotoxic, partial curve]
